Consider two molecules from patent publication US20040230039A1 (YEDA RESEARCH AND DEVELOPMENT, published 2004).

No constants are given. Whether binding was seen depends on the method and setting. Some results given as binding are weak or reduced against the parent protein; the word gives no strength. For part of these data: Where a sequence is shown, tags or fusion partners need not be part of it.

Common to all, as to conditions: remark: other sources report otherwise
The target of experiment [1] is T1, human FAS-R (full receptor expressed in HeLa cells) (human), P25445.
T1 chain: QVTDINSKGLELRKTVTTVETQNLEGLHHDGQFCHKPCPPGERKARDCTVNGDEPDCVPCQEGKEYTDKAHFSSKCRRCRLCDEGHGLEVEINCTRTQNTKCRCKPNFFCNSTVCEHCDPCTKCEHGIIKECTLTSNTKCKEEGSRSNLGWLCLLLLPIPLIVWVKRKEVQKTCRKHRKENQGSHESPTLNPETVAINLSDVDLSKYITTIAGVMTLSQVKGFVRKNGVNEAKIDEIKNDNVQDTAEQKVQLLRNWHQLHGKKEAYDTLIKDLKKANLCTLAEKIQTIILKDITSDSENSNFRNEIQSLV
As to the kind of experiment: cross immunoprecipitation from co-transfected, 35S-labeled HeLa cells.

The target in experiment [2] is T2, MORT-1 (FADD), human, full-length (human), Q13158.
T2 chain: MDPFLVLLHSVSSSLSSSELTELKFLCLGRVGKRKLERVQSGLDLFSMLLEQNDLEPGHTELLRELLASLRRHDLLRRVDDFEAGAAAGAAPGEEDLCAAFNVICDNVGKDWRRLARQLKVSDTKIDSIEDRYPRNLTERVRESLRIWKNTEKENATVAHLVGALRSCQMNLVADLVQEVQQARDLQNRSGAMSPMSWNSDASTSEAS
As to the kind of experiment: yeast two-hybrid screen of a human B cell library with MORT-1 as bait.

Experiment [3] deals with T2, MORT-1 (FADD), human, full-length …. As to the kind of experiment: yeast two-hybrid beta-galactosidase test.

B1: FLAG-MORT-1, Q13158 1-208 (protein, UniProt Q13158 1-208, looked up, not shown: small tags and cut ends)
chain: T2 chain
Turning to B1, the binding entry in experiment [1] was “binds”.

B2: MORT-1 (FADD), human, full-length, Q13158 1-208 (protein, UniProt Q13158 1-208, looked up)
chain: T2 chain
Regarding B2, the binding entry in experiment [2] and in experiment [3] was “binds” throughout.
